PubChem BioAssay AID1508597 | Cure First, 2020

Assay: 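Knock-downs altering ovarian cancer cell survival with or without PARP inhibitor rucaparib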 (primary screen)
Cells: human ovarian carcinoma lines grown from tumours: OCI-P5x (papillary serous) and OCI-C5x (clear cell)
Knock-down reagent: siRNA pool against human genes, 1.25 pmol siRNA per well
Time to read-out: 72 h or 96 h, depending on the cell culture
Conditions: rucaparib 20 µM (about IC30) or vehicle, present until read-out
Rucaparib or vehicle: Vehicle
Cell line: OCI-C5x (clear cell)
Read-out: 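ATP luminescence measured at 72 or 96 h according to the culture, then normalised and expressed as percent viability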
Direction: viability, normalised: higher = more viable cells remaining
Rule for the call: 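a well counts as a hit if its normalised viability is under 80 percent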
Meaning of the calls: active = viability under 80%; inactive = viability 80% or more
This is a random part of the about 2,100 reagents, in one setting of the screen. 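Calls flag viability under 80% in either arm, not effects specific to rucaparib; the reference for percent is not stated.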 A reagent listed more than once was tested more than once; the source does not tell the runs apart. No sequences are given here. Not given: the 100% reference.

CSNK2A2 (casein kinase 2 alpha 2), technical replicate 1 scored viability, normalised (%) = 80.9; inactive.
For CSNK2A2 (casein kinase 2 alpha 2), technical replicate 2, the entry reads viability, normalised (%) = 59.4; active.
With CSNK2A2 (casein kinase 2 alpha 2), technical replicate 3, the entry reads viability, normalised (%) = 45.4; active.
For CLDN8 (claudin 8), technical replicate 1, the entry reads viability, normalised (%) = 34.6; active.
CLDN8 (claudin 8), technical replicate 2 scored viability, normalised (%) = 39.8; active.
With CLDN8 (claudin 8), technical replicate 3, the values are viability, normalised (%) = 38.9; active.
PRMT8 (protein arginine methyltransferase 8), technical replicate 1 scored viability, normalised (%) = 33.7; active.
With PRMT8 (protein arginine methyltransferase 8), technical replicate 2 the deposit lists viability, normalised (%) = 39.8; active.
PRMT8 (protein arginine methyltransferase 8), technical replicate 3 gave viability, normalised (%) = 45; active.
RFC1 (replication factor C subunit 1), technical replicate 1 showed viability, normalised (%) = 50.3; active.
RFC1 (replication factor C subunit 1), technical replicate 2 scored viability, normalised (%) = 48.2; active.
With RFC1 (replication factor C subunit 1), technical replicate 3, the values are viability, normalised (%) = 34.8; active.
ZFP82 (ZFP82 zinc finger protein), technical replicate 1 gave viability, normalised (%) = 62.5; active.
ZFP82 (ZFP82 zinc finger protein), technical replicate 2 gave viability, normalised (%) = 73.1; active.
With ZFP82 (ZFP82 zinc finger protein), technical replicate 3, the values are viability, normalised (%) = 49.5; active.

A stretch taken from the entries so far:
PRMT8 (protein arginine methyltransferase 8), technical replicate 1 | viability, normalised (%): 33.7; Call: active
PRMT8 (protein arginine methyltransferase 8), technical replicate 2 | viability, normalised (%): 39.8; Call: active
PRMT8 (protein arginine methyltransferase 8), technical replicate 3 | viability, normalised (%): 45; Call: active
RFC1 (replication factor C subunit 1), technical replicate 1 | viability, normalised (%): 50.3; Call: active
RFC1 (replication factor C subunit 1), technical replicate 2 | viability, normalised (%): 48.2; Call: active

The listing continues:
MAP3K4 (mitogen-activated protein kinase kinase kinase 4), technical replicate 1 scored viability, normalised (%) = 116; inactive.
MAP3K4 (mitogen-activated protein kinase kinase kinase 4), technical replicate 2 showed viability, normalised (%) = 68.5; active.
With MAP3K4 (mitogen-activated protein kinase kinase kinase 4), technical replicate 3 the deposit lists viability, normalised (%) = 42.7; active.
For CLDN19 (claudin 19), technical replicate 1, the values are viability, normalised (%) = 26.3; active.
CLDN19 (claudin 19), technical replicate 2 showed viability, normalised (%) = 21.4; active.
With CLDN19 (claudin 19), technical replicate 3, the entry reads viability, normalised (%) = 28; active.
For DHX32 (DEAH-box helicase 32 (putative)), technical replicate 1 the deposit lists viability, normalised (%) = 29.6; active.
With DHX32 (DEAH-box helicase 32 (putative)), technical replicate 2, the entry reads viability, normalised (%) = 43.4; active.
DHX32 (DEAH-box helicase 32 (putative)), technical replicate 3 showed viability, normalised (%) = 38.3; active.
For EP400 (E1A binding protein p400), technical replicate 1, the values are viability, normalised (%) = 48.4; active.
EP400 (E1A binding protein p400), technical replicate 2 showed viability, normalised (%) = 59.7; active.
For EP400 (E1A binding protein p400), technical replicate 3 the deposit lists viability, normalised (%) = 51.8; active.
GNAT1 (G protein subunit alpha transducin 1), technical replicate 1 gave viability, normalised (%) = 37; active.
GNAT1 (G protein subunit alpha transducin 1), technical replicate 2 scored viability, normalised (%) = 50.6; active.
GNAT1 (G protein subunit alpha transducin 1), technical replicate 3 scored viability, normalised (%) = 42.4; active.
For NBN (nibrin), technical replicate 1, the entry reads viability, normalised (%) = 38.4; active.
For NBN (nibrin), technical replicate 1, the values are viability, normalised (%) = 47.2; active.
With NBN (nibrin), technical replicate 2 the deposit lists viability, normalised (%) = 50.1; active.
NBN (nibrin), technical replicate 2 scored viability, normalised (%) = 51.3; active.
NBN (nibrin), technical replicate 3 showed viability, normalised (%) = 44.3; active.
NBN (nibrin), technical replicate 3 scored viability, normalised (%) = 37.2; active.
